# Measured values taken from PubChem BioAssay (Tox21).
# Protein sequences, listed by entry. Tags and fused reporters are not part of them. Lines headed by an entry give the natural chain unless they say otherwise; changes in a name come on top.
# UniProt P28223, whole entry, looked up: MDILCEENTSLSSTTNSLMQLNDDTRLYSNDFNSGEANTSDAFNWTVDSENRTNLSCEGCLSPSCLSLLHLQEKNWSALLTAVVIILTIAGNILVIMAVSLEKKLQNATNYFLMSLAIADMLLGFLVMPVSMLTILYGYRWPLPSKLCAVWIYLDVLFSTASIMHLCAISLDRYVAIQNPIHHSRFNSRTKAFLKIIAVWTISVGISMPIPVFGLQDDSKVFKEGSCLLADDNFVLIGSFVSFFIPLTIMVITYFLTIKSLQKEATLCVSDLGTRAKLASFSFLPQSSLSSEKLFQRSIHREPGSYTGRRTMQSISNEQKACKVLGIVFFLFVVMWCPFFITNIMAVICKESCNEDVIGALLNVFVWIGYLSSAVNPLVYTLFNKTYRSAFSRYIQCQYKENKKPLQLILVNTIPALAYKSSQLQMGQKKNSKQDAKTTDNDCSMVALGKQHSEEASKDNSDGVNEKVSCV
# UniProt P14416, whole entry, looked up: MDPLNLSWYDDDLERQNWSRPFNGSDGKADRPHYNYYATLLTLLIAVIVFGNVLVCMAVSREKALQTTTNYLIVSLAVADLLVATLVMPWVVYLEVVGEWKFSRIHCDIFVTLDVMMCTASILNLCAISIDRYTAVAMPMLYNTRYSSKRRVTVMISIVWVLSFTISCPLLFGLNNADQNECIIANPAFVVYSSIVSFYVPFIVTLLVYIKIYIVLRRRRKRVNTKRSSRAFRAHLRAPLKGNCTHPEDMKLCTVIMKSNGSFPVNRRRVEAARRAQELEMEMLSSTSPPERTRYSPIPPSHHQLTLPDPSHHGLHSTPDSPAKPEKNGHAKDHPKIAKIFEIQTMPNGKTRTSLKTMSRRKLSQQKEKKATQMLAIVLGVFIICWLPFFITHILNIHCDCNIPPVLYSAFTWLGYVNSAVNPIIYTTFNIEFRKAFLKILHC
# UniProt P11229: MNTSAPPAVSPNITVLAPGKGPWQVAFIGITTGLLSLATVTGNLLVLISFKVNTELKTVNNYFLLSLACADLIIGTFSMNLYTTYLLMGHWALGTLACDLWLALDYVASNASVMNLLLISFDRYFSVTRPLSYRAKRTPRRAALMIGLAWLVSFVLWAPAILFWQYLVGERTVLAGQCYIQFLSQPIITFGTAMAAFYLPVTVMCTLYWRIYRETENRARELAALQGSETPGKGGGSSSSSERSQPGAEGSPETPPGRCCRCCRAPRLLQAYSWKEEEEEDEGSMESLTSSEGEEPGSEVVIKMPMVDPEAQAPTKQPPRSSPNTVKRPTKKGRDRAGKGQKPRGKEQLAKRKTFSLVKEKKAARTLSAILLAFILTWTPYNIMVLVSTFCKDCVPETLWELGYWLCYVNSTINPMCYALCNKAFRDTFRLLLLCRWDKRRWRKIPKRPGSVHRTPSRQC
# “And” between values parts separate entries of the source, which are not always exact repeats. Equal entries are not always repeated. The inconclusive results got no clear call from the source; some entries with a clear call stand among them for comparison. For some of these results: Where the call is inconclusive, the potency comes from a doubtful curve fit. Some structures have more than one record in an assay (separate samples or runs), and their calls can disagree. The source made the active and inactive calls. Unless noted, calls follow the shape of the full dose curve.
# Columns and labels:
# [1] = p53 small molecule agonists, cell-based qHTS assay with rat liver microsomes: qHTS cell viability counter screen (AID 1963580); also: nearly all actives have a fitted effect of over 45% in size; also: potency is read from the fitted curve at half-maximal effect
# How it was run: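 After the beta-lactamase ratio was read, CellTiter-Glo was added to the same wells and luminescence measured at 30 min; cells had been treated 16 h at 37 C with compounds, rat liver microsomes and NADPH (0.5 mg/mL final each).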
# [2] = p53 small molecule agonists, cell-based qHTS assay (AID 1963582; active = well fitted activation curve with a large enough effect in the signal ratio in the repeat runs, not every such curve was filed as active; inconclusive = weak or mixed curves; the % refers to the signal ratio; also: potency is read from the fitted curve at half-maximal effect; as to activation: % is scaled to controls: 0 for no effect and ±100 for the full control effect); conditions: HCT-116 p53RE-bla reporter, beta-lactamase FRET ratio, 16 h; activation: at 66 µM (top of the series) unless noted
# How it was run: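 After plating, p53RE-bla cells sat 5 h in the incubator; compounds or DMSO vehicle were pinned in; a 16 h incubation at 37 C followed; FRET substrate was added and, 2 h later at RT, fluorescence was measured.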
# [3] = biological target: 5-hydroxytryptamine receptor 2A (Homo sapiens) (UniProt P28223); test: 5-hydroxytryptamine receptor 2A (HTR2A) small molecule agonists, cell-based qHTS assay (AID 1963587); also: nearly all actives have a fitted effect of over 30% in size; also: potency is read from the fitted curve at half-maximal effect; as to activation: % is scaled to controls: 0 for no effect and ±100 for the full control effect
# How it was run: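 CHO cells stably expressing human HTR2A, plated 18 h, loaded with calcium dye 1 h at 37 C. Agonist mode: compounds added and intracellular calcium fluorescence recorded kinetically for 2 min at 1 sec intervals.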
# [4] = biological target: Beta-2 adrenergic receptor (Homo sapiens) (UniProt P07550); test: Adrenergic beta2 receptor (ADRB2) small molecule agonists, cell-based qHTS assay (AID 1963593); conditions: CHO-ADRB2 cells, cAMP HTRF, 30 min; also: potency is read from the fitted curve at half-maximal effect;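 as to activation: CHO cells stably overexpressing human ADRB2; % is scaled to controls: 0 for no effect and ±100 for the full control effect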
# How it was run: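 CHO cells stably over-expressing ADRB2 were plated overnight at 37C, then dosed with compounds plus a stimulation mix containing 100uM IBMX and 25uM Ro-20-1724 for 0.5hr at room temperature. cAMP was measured by HTRF competition, 1hr.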
# [5] = biological target: D(2) dopamine receptor (Homo sapiens) (UniProt P14416); test: Dopamine D2 receptor (DRD2) small molecule agonists, cell-based qHTS assay (AID 1963594); conditions: HEK293-DRD2 cAMP HTRF, agonist mode, 30 min; also: nearly all actives have a fitted effect of over 35% in size; also: potency is read from the fitted curve at half-maximal effect
# How it was run: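 HEK293 cells stably expressing human DRD2, pre-treated with PDE inhibitor Ro20-1724 (0.1 mM final) and compound 10 min at room temperature, then stimulated with NKH477 (200nM […]) for 30 min. cAMP read by HTRF (665/620 nm).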
# [6] = biological target: 5-hydroxytryptamine receptor 2A (Homo sapiens) (UniProt P28223); test: 5-hydroxytryptamine receptor 2A (HTR2A) small molecule antagonists, cell-based qHTS assay (AID 1963586); also: potency is read from the fitted curve at half-maximal effect; nearly all actives have a fitted effect of over 45% in size
# How it was run: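 CHO cells stably expressing human HTR2A were plated for 18 h at 37 C, then loaded with calcium dye for 1 h. Compounds were preincubated 5 min at room temperature before DOI (4 nM solution) was added. Kinetic fluorescence was read for 3 min.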
# [7] = cAMP Responsive Elements (CRE) small molecule agonists, cell-based qHTS assay (AID 1963590); conditions: CRE-bla HEK293T, beta-lactamase FRET ratio, 3 h; activation: at 92.4 µM (top of the series) unless noted; also: potency is read from the fitted curve at half-maximal effect
# How it was run: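 Compound exposure lasted 3 h at 37 C/5% CO2 in CRE-bla HEK 293T cells grown in assay medium with 10% dialyzed FBS and 25 mM HEPES. Reporter signal came from LiveBLAzer B/G FRET substrate, 2 h, room temperature.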
# [8] = cAMP Responsive Elements (CRE) small molecule antagonists, cell-based qHTS assay (AID 1963591; active = well fitted inhibition curve with a large enough effect in the signal ratio in the repeat runs, not every such curve was filed as active; inconclusive = weak or mixed curves, or effect the other way; the % refers to the signal ratio; also: potency is read from the fitted curve at half-maximal effect); conditions: CRE-bla HEK293T, beta-lactamase FRET ratio
# How it was run: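 Stimulation used NKH477 at a final 0.25 uM for 3 h in compound-treated CRE-bla HEK293T cells, seeded 18 h beforehand. Reporter activity was measured with LiveBLAzer B/G FRET substrate after 2 h at room temperature.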
# [9] = biological target: Beta-2 adrenergic receptor (Homo sapiens) (UniProt P07550); test: Adrenergic beta2 receptor (ADRB2) small molecule antagonists, cell-based qHTS assay (AID 1963592); conditions: CHO-ADRB2 cells, isoproterenol-stimulated cAMP HTRF ratio, 0.5 h; also: nearly all actives have a fitted effect of over 50% in size; also: potency is read from the fitted curve at half-maximal effect
# How it was run: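 Assay format: CHO-ADRB2 cells, 18-20hr seeding at 37C/5% CO2, then compound plus 1nM isoproterenol agonist mix for 0.5hr RT. Homogeneous time-resolved fluorescence cAMP detection after 1hr, expressed as 665/615 nm ratio.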
# [10] = p53 small molecule agonists, cell-based qHTS assay: qHTS cell viability counter screen (AID 1963581); also: nearly all actives have a fitted effect of over 45% in size; also: potency is read from the fitted curve at half-maximal effect
# How it was run: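 Luminescence from CellTiter-Glo, reflecting ATP content, serves as the cytotoxicity measure; it is taken after the 2 h reporter substrate step in HCT-116 p53RE-bla cells dosed for 16 h at 37 C.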
# [11] = biological target: Muscarinic acetylcholine receptor M1 (Homo sapiens) (UniProt P11229); test: Cholinergic receptor muscarinic 1 (CHRM1) small molecule antagonists, cell-based qHTS assay (AID 1963588); also: nearly all actives have a fitted effect of over 40% in size; also: potency is read from the fitted curve at half-maximal effect
# How it was run: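 Compounds were tested at 15 concentrations in three independent runs. Dye-loaded CHRM1-CHO cells were exposed 5 min at room temperature before stimulation by acetylcholine added at 50nM. Intracellular calcium was read kinetically on FDSS for 3 min.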
# [12] = biological target: Muscarinic acetylcholine receptor M1 (Homo sapiens) (UniProt P11229); test: Cholinergic receptor muscarinic 1 (CHRM1) small molecule agonists, cell-based qHTS assay (AID 1963589); also: potency is read from the fitted curve at half-maximal effect; nearly all actives have a fitted effect of over 35% in size
# How it was run: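 Fluorescent calcium dye reports M1 activation in stably transfected CHO cells. Compounds, 15 concentrations, added after 1 h dye loading at 37 C; kinetic reading at 1 sec intervals.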
# [13] = biological target: D(2) dopamine receptor (Homo sapiens) (UniProt P14416); test: Dopamine D2 receptor (DRD2) small molecule antagonists, cell-based qHTS assay (AID 1963595; active = well fitted inhibition curve with a large enough effect in the signal ratio in the repeat runs, with a control signal flat; inconclusive = weak or mixed curves, or effect the other way; the % refers to the signal ratio; also: % is scaled to controls: 0 for no effect and ±100 for the full control effect); conditions: HEK293-DRD2 cAMP HTRF antagonist mode; activity change, negative = inhibition: at 92.4 µM (top of the series) unless noted
# How it was run: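 Human DRD2 antagonist qHTS measuring cAMP by HTRF. The cells are exposed to compound for 10 min, then to NKH477 (200 nM) and quinpirole (12 nM) for 30 min at RT, with Ro20-1724 (0.1 mM) present throughout.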
# [14] = activation: at 92.4 µM (top of the series) unless noted
# [15] = activity change, negative = inhibition: at 92.4 µM (top of the series) unless noted
structure (smiles),measurement,setting,value
Nc1ccc(F)c([N+](=O)[O-])c1,Potency,[1],inactive
same,Potency,[2],inactive
same,Potency,[3],inactive
same,activation,[4]; [14],inconclusive: 15.1%
same,Potency,[5]; [14],inactive
COc1ccccc1NC(=O)c1cc2ccccc2cc1O,Potency,[1],"inconclusive: 51.3 µM [cytotoxic, single point]"
same,activation,[2],inconclusive: 9.84%
same,Potency,[6],active: 21.1 µM
same,Potency,[7],"inconclusive: 61.1 µM [rising, partial curve]"
same,Potency,[8]; [15],inconclusive: 61.1 µM
same,Potency,[9]; [15],active: 54.5 µM
same,Potency,[4]; [14],"inconclusive: 30.6 µM [inhibitor, full curve]"
CCN(CC)CCOc1ccc(C(O)(Cc2ccc(Cl)cc2)c2ccc(C)cc2)cc1 (configuration not stated),Potency,[1],inactive
same,Potency,[10],active: 19.9 µM
same,Potency,[3],inconclusive: 26.8 µM [activator]
same,Potency,[11],"inconclusive: 20.5 µM [inhibitor, single point]"
same,Potency,[12],"inconclusive: 26.8 µM [rising, single point]"
same,Potency,[7],inconclusive: 33.5 µM [fluorescent]
same,Potency,[8]; [15],inconclusive: 33.5 µM [single point]
same,Potency,[4]; [14],inactive
Fc1ccc(Br)cc1,Potency,[1],"inconclusive: 51.9 µM [cytotoxic, single point]"
same,Potency,[10],"inconclusive: 16.4 µM [rising, single point]"
same,Potency,[4]; [14],"inconclusive: 17.2 µM [inhibitor, full curve, poor fit]"
Nc1[nH]c(=O)ncc1F,Potency,[1],"inconclusive: 0.5 µM [cytotoxic, single point]"
same,Potency,[10],inactive
same,Potency,[4]; [14],inactive
Cc1cccc(N(C)C(=S)Oc2ccc3c(c2)CCC3)c1,Potency,[1],inactive
same,Potency,[2],"inconclusive: 17.8 µM [rising, partial curve, poor fit]"
same,Potency,[6],active: 1.3 µM
same,Potency,[7],inactive
same,Potency,[4]; [14],inactive
same,"activity change, negative = inhibition",[13],inconclusive: -24% [at 42.5 µM]
C=Cc1ccccc1C=C,Potency,[1],inactive
same,Potency,[10],"inconclusive: 1.63 µM [cytotoxic, single point]"
same,activation,[4]; [14],inconclusive: -23.3% [at 240 µM]
OCCN(CCO)c1cccc(Cl)c1,Potency,[1],inactive
same,Potency,[2],inactive
same,Potency,[3],"inconclusive: 61.6 µM [activator, single point]"
same,Potency,[9]; [15],inactive
same,activation,[4]; [14],inconclusive: -52.1%
CC(C)[C@H]1CC[C@H](C)C[C@@H]1O,Potency,[1],inactive
same,Potency,[10],"inconclusive: 1.65 µM [cytotoxic, full curve, poor fit]"
same,Potency,[3],"inconclusive: 49.8 µM [activator, partial curve, poor fit]"
same,Potency,[4]; [14],inactive
same,Potency,[5]; [14],active: 57.9 µM
O=C1CCc2ccccc2O1,Potency,[1],"inconclusive: 0.13 µM [cytotoxic, partial curve, poor fit]"
same,Potency,[10],"inconclusive: 0.0365 µM [rising, full curve, poor fit]"
same,"activity change, negative = inhibition",[8]; [15],inconclusive: 8.28%
same,"activity change, negative = inhibition",[8]; at 92.4 µM (top of the series),inactive: 0.478%
same,activation,[4]; [14],inconclusive: -29.1%
same,activation,[4]; at 92.4 µM (top of the series),inactive: 0.867%
COC(=O)c1ccc(C=O)cc1,Potency,[1],inactive
same,Potency,[2],"inconclusive: 45.8 µM [falling, single point]"
same,Potency,[3],inactive
same,activation,[4]; [14],inconclusive: 3.59%
CCCCCCCCCCCCCCCCCC#N,Potency,[1],active: 1.65 µM
same,Potency,[10],"inconclusive: 52.1 µM [rising, single point]"
same,Potency,[7],inactive
same,Potency,[4]; [14],"inconclusive: 1.39 µM [inhibitor, single point]"
same,Potency,[5]; [14],inactive
CC(=O)C(C)=O,Potency,[1],"inconclusive: 51.7 µM [cytotoxic, single point]"
same,Potency,[10],inactive
same,Potency,[7],inactive
same,Potency,[4]; [14],inactive
CC(=O)CC(C)C,Potency,[1],inactive
same,Potency,[2],inactive
same,Potency,[6],"inconclusive: 9.42 µM [inhibitor, single point]"
same,Potency,[11],inactive
CCCCCC/C=C/CCCCCCCC(=O)O,Potency,[1],"inconclusive: 10.3 µM [cytotoxic, single point]"
same,Potency,[10],"inconclusive: 0.324 µM [rising, partial curve, poor fit]"
same,activation,[4]; [14],inconclusive: 8.57%
C[C@]12C[C@H](O)[C@H]3[C@@H](CCC4=CC(=O)CC[C@@]43C)[C@@H]1CC[C@@H]2C(=O)CO,Potency,[1],"inconclusive: 18.2 µM [rising, single point]"
same,activation,[2],inconclusive: 10.2%
same,Potency,[6],"inconclusive: 1.83 µM [inhibitor, full curve, poor fit]"
same,Potency,[7],"inconclusive: 61.1 µM [rising, partial curve, poor fit]"
same,"activity change, negative = inhibition",[9]; [15],inconclusive: 2.49%
same,"activity change, negative = inhibition",[9]; at 42.5 µM (top of the series),inactive: 7.31%
same,"activity change, negative = inhibition",[9]; at 92.4 µM (top of the series),inactive: -10.2%
same,activation,[4]; [14],inconclusive: 4.75% and inconclusive: 2.2%
same,activation,[4]; at 42.5 µM (top of the series),inactive: 3.03%
same,activation,[5]; [14],inconclusive: -2.7% [at 42.5 µM]
same,activation,[5]; at 92.4 µM (top of the series),inactive: -0.367% and inactive: 2.28%

# Random excerpt: 4 records from the list.
structure (smiles),measurement,setting,value
OCCN(CCO)c1cccc(Cl)c1,Potency,[3],"inconclusive: 61.6 µM [activator, single point]"
C[C@]12C[C@H](O)[C@H]3[C@@H](CCC4=CC(=O)CC[C@@]43C)[C@@H]1CC[C@@H]2C(=O)CO,"activity change, negative = inhibition",[9]; at 42.5 µM (top of the series),inactive: 7.31%
same,"activity change, negative = inhibition",[9]; at 92.4 µM (top of the series),inactive: -10.2%
O=C1CCc2ccccc2O1,Potency,[10],"inconclusive: 0.0365 µM [rising, full curve, poor fit]"
